# Some of the results follow.
# Columns and labels:
# Assay in all cases: glycan array binding signal (z-score within array); higher = stronger binding
# Conditions in all cases: glycan notation: IUPAC condensed, linker removed
# [1] = molecular target: Gal(b1-4)GlcNAc(b1-2)Man(a1-6)[Man(a1-3)]Man(b1-4)GlcNAc(b1-4)GlcNAc
# How it was run: (§1)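 Columns mapping to the same glycan were averaged after glycan names were converted to IUPAC-condensed notation. The data come from 3228 arrays in the Consortium for Functional Glycomics database, limited to those with an available protein sequence. Binding is reported as a within-array Z-score averaged across arrays of one protein sequence and across linkers.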
# [2] = molecular target: Gal(b1-4)GlcNAc(b1-2)[Gal(b1-4)GlcNAc(b1-4)]Man(a1-3)[Gal(b1-4)GlcNAc(b1-2)Man(a1-6)]Man(b1-4)GlcNAc(b1-4)GlcNAc
# How it was run: as §1
# [3] = molecular target: Gal(b1-4)GlcNAc(b1-2)[Gal(b1-4)GlcNAc(b1-4)]Man(a1-3)[Gal(b1-4)GlcNAc(b1-2)[Gal(b1-4)GlcNAc(b1-6)]Man(a1-6)]Man(b1-4)GlcNAc(b1-4)GlcNAc
# How it was run: as §1
# [4] = molecular target: Gal(b1-4)GlcNAc(b1-2)[Gal(b1-4)GlcNAc(b1-4)]Man(a1-3)[GlcNAc(b1-4)][Gal(b1-4)GlcNAc(b1-2)Man(a1-6)]Man(b1-4)GlcNAc(b1-4)GlcNAc
# How it was run: as §1
# [5] = molecular target: Gal(b1-4)GlcNAc(b1-2)[Gal(b1-4)GlcNAc(b1-4)]Man(a1-3)[GlcNAc(b1-4)][Gal(b1-4)GlcNAc(b1-2)[Gal(b1-4)GlcNAc(b1-6)]Man(a1-6)]Man(b1-4)GlcNAc(b1-4)GlcNAc
# How it was run: as §1
# [6] = molecular target: Gal(b1-4)GlcNAc(b1-2)[Gal(b1-4)GlcNAc(b1-6)]Man(a1-6)[Gal(b1-4)GlcNAc(b1-2)Man(a1-3)]Man(b1-4)GlcNAc(b1-4)GlcNAc
# How it was run: as §1
# [7] = molecular target: Gal(b1-4)GlcNAc(b1-2)[Gal(b1-4)GlcNAc(b1-6)]Man(a1-6)[Gal(b1-4)GlcNAc(b1-2)Man(a1-3)]Man(b1-4)GlcNAc(b1-4)[Fuc(a1-6)]GlcNAc
# How it was run: as §1
# [8] = molecular target: Gal(b1-4)GlcNAc(b1-2)[Gal(b1-4)GlcNAc(b1-6)]Man(a1-6)[GlcNAc(b1-4)][Gal(b1-4)GlcNAc(b1-2)Man(a1-3)]Man(b1-4)GlcNAc(b1-4)GlcNAc
# How it was run: as §1
# [9] = molecular target: Gal(b1-4)GlcNAc(b1-2)[Gal(b1-4)GlcNAc(b1-6)]Man(a1-6)[GlcNAc(b1-4)][Gal(b1-4)GlcNAc(b1-2)[Gal(b1-4)GlcNAc(b1-4)]Man(a1-3)]Man(b1-4)GlcNAc(b1-4)[Fuc(a1-6)]GlcNAc
# How it was run: as §1
# [10] = molecular target: Gal(b1-4)GlcNAc(b1-3)Gal(b1-3)GalNAc
# How it was run: as §1
# [11] = molecular target: Gal(b1-4)GlcNAc(b1-3)Gal(b1-3)GlcNAc
# How it was run: as §1
# [12] = molecular target: Gal(b1-4)GlcNAc(b1-3)Gal(b1-4)Glc
# How it was run: as §1
# [13] = molecular target: Gal(b1-4)GlcNAc(b1-3)Gal(b1-4)GlcNAc
# How it was run: as §1
# [14] = molecular target: Gal(b1-4)GlcNAc(b1-3)Gal(b1-4)GlcNAc(b1-2)Man(a1-3)[Gal(b1-4)GlcNAc(b1-3)Gal(b1-4)GlcNAc(b1-2)Man(a1-6)]Man(b1-4)GlcNAc(b1-4)GlcNAc
# How it was run: as §1
# [15] = molecular target: Gal(b1-4)GlcNAc(b1-3)Gal(b1-4)GlcNAc(b1-2)Man(a1-3)[Gal(b1-4)GlcNAc(b1-3)Gal(b1-4)GlcNAc(b1-2)Man(a1-6)]Man(b1-4)GlcNAc(b1-4)[Fuc(a1-6)]GlcNAc
# How it was run: as §1
# [16] = molecular target: Gal(b1-4)GlcNAc(b1-3)Gal(b1-4)GlcNAc(b1-2)[Gal(b1-4)GlcNAc(b1-3)Gal(b1-4)GlcNAc(b1-6)]Man(a1-6)[Gal(b1-4)GlcNAc(b1-3)Gal(b1-4)GlcNAc(b1-2)Man(a1-3)]Man(b1-4)GlcNAc(b1-4)GlcNAc
# How it was run: as §1
# [17] = molecular target: Gal(b1-4)GlcNAc(b1-3)Gal(b1-4)GlcNAc(b1-2)[Gal(b1-4)GlcNAc(b1-3)Gal(b1-4)GlcNAc(b1-6)]Man(a1-6)[Gal(b1-4)GlcNAc(b1-3)Gal(b1-4)GlcNAc(b1-2)Man(a1-3)]Man(b1-4)GlcNAc(b1-4)[Fuc(a1-6)]GlcNAc
# How it was run: as §1
# [18] = molecular target: Gal(b1-4)GlcNAc(b1-3)Gal(b1-4)GlcNAc(b1-3)Gal(b1-4)GlcNAc
# How it was run: as §1
# [19] = molecular target: Gal(b1-4)GlcNAc(b1-3)Gal(b1-4)GlcNAc(b1-3)Gal(b1-4)GlcNAc(b1-2)Man(a1-3)[Gal(b1-4)GlcNAc(b1-3)Gal(b1-4)GlcNAc(b1-3)Gal(b1-4)GlcNAc(b1-2)Man(a1-6)]Man(b1-4)GlcNAc(b1-4)GlcNAc
# How it was run: as §1
# [20] = molecular target: Gal(b1-4)GlcNAc(b1-3)Gal(b1-4)GlcNAc(b1-3)Gal(b1-4)GlcNAc(b1-2)Man(a1-3)[Gal(b1-4)GlcNAc(b1-3)Gal(b1-4)GlcNAc(b1-3)Gal(b1-4)GlcNAc(b1-2)Man(a1-6)]Man(b1-4)GlcNAc(b1-4)[Fuc(a1-6)]GlcNAc
# How it was run: as §1
# [21] = molecular target: Gal(b1-4)GlcNAc(b1-3)Gal(b1-4)GlcNAc(b1-3)Gal(b1-4)GlcNAc(b1-2)[Gal(b1-4)GlcNAc(b1-3)Gal(b1-4)GlcNAc(b1-3)Gal(b1-4)GlcNAc(b1-6)]Man(a1-6)[Gal(b1-4)GlcNAc(b1-3)Gal(b1-4)GlcNAc(b1-3)Gal(b1-4)GlcNAc(b1-2)Man(a1-3)]Man(b1-4)GlcNAc(b1-4)[Fuc(a1-6)]GlcNAc
# How it was run: as §1
# [22] = molecular target: Gal(b1-4)GlcNAc(b1-3)Gal(b1-4)GlcNAc(b1-3)Gal(b1-4)GlcNAc(b1-3)Gal(b1-4)GlcNAc(b1-2)Man(a1-3)[Gal(b1-4)GlcNAc(b1-3)Gal(b1-4)GlcNAc(b1-3)Gal(b1-4)GlcNAc(b1-3)Gal(b1-4)GlcNAc(b1-2)Man(a1-6)]Man(b1-4)GlcNAc(b1-4)GlcNAc
# How it was run: as §1
binder,measurement,setting,value
SJCP1531 (Schistosoma japonicum) (protein) MFKVRIINLVNISTVLLLINLLQTKSQVNVEQLVTVLEVNIKAQLKNKTTEVLVEWNPLYQDNSMPEYRKLLDETCKLFLPFVNEKVPPSTYGGECTNANFSEAPQDGSYSRVNAELRLIYKYSDNPQIQTDRLQDDLNDREEFITSESSFVAYNPKFTVKIEKLFIPISESQTTPPPTTAKNDASKKDDDDNGGEDSKAPIDTFAMTASGNKGKKDDDDNGGEDSKAPIDTFAMTASGSKDERSTWTIIGIITLVVLIFVVIGGGITVFVKRC,glycan array binding signal (z-score),[1],0.218
same,glycan array binding signal (z-score),[2],0.725
same,glycan array binding signal (z-score),[3],-1.04
same,glycan array binding signal (z-score),[4],0.279
same,glycan array binding signal (z-score),[5],-0.795
same,glycan array binding signal (z-score),[6],-0.726
same,glycan array binding signal (z-score),[7],-0.188
same,glycan array binding signal (z-score),[8],0.237
same,glycan array binding signal (z-score),[9],-0.775
same,glycan array binding signal (z-score),[10],-0.642
same,glycan array binding signal (z-score),[11],-0.665
same,glycan array binding signal (z-score),[12],-0.137
same,glycan array binding signal (z-score),[13],-0.823
same,glycan array binding signal (z-score),[14],0.797
same,glycan array binding signal (z-score),[15],2.21
same,glycan array binding signal (z-score),[16],0.413
same,glycan array binding signal (z-score),[17],-0.813
same,glycan array binding signal (z-score),[18],1.89
same,glycan array binding signal (z-score),[19],0.391
same,glycan array binding signal (z-score),[20],1.52
same,glycan array binding signal (z-score),[21],2.79
same,glycan array binding signal (z-score),[22],0.778
